In US9414589B2, “N-cyclylamides as nematicides” (SYNGENTA PARTICIPATIONS AG, priority 2012, dated 2016):
Some entries share one result that the patent states for a list of compounds.

Legend:
[1] = system: Meloidogyne spp. (Root-knot nematode); experiment: Meloidogyne spp. contact activity, preventive, pouch test (cucumber); assay type: in vivo; settings: cucumber cv. Toshka seed, 200 ppm, 3000 eggs, twelve days
Method: (§1) Meloidogyne spp. (Root-knot nematode) contact activity, preventive. Pouch test. Filter papers (9 cm×4.5 cm) with a small pocket were placed into plastic pouches (12 cm×6 cm). One cucumber cv. Toshka seed was placed in the centre of the filter paper pocket of all the pouches needed for a test. The cucumber seeds in the pouches were treated with test solutions at 200 ppm by pipetting the solution directly over the cucumber seed in the filter paper pocket in the pouch. Prior to application, the compound solution was prepared at twice the concentration required and the egg suspension is prepared with FORL nutrient solution with 3000 eggs/0.5 ml. After applying all the treatments, 3000 eggs (in 0.5 ml of FORL nutrient solution) were pipetted into the pouches. The pouches were incubated in a moist chamber for twelve days and watered regularly to maintain good filter paper moisture essential for the growing cucumber root system. After this period, the filter paper containing the germinated cucumber seedling was removed from the plastic pouch to assess the number of galls caused by Meloidogyne spp. per root system. […] Meloidogyne spp. (Root-knot nematode) contact activity, preventive, drench test. Cucumber cv. Toshka seeds were sown directly into pots filled with a sandy substrate. Six days later pots were each treated with 5 ml of a WP10 suspension of the test compound at 20 ppm. Hereafter pots were inoculated with 3000 eggs of M. incognita. The trial was harvested fourteen days after trial application and inoculation. Root galling was assessed according to Zeck's gall index (Zeck, 1971).

[2] = system: Meloidogyne spp. (Root-knot nematode); experiment: Meloidogyne spp. contact activity, preventive, drench test (cucumber in pots); assay type: in vivo; settings: cucumber cv. Toshka, 20 ppm WP10 suspension, 3000 eggs of M. incognita, fourteen days, Zeck's gall index
Method: as §1, with “Filter” for “Meloidogyne spp. (Root-knot nematode) contact activity, preventive. Pouch test. Filter”

Structure (SMILES) | reduction of galling compared to the untreated control [1] | reduction of galling compared to the untreated control [2]
O=C(NC1CCC1c1ccc(Br)cc1)c1ccccc1C(F)(F)F (racemic) [57.035] | greater than 80% | greater than 80%
O=C(NC1CCC1c1ccc(Br)cc1)c1cccnc1C(F)(F)F (racemic) [57.037] | greater than 80% | greater than 80%
N#Cc1ccc(C2CCC2NC(=O)c2cccnc2C(F)(F)F)cc1 (racemic) [57.039] | greater than 80% | greater than 80%
O=C(NC1CCC1c1ccc(F)cc1)c1ncccc1Cl (racemic) [57.041] |  | greater than 80%
O=C(NC1CCC1c1ccc(F)cc1)c1ncccc1F (racemic) [57.042] |  | greater than 80%
O=C(NC1COC1c1c(F)cc(F)cc1F)c1ccccc1C(F)(F)F (racemic) [57.047] | greater than 80% | greater than 80%
O=C(NC1COC1c1ccc(OC(F)F)cc1)c1ccccc1C(F)(F)F (racemic) [57.048] | greater than 80% | greater than 80%
O=C(NC1COC1c1ccc(F)cc1F)c1c(F)cccc1F (racemic) [57.051] | greater than 80% | greater than 80%
O=C(NC1COC1c1c(F)cc(F)cc1F)c1c(F)cccc1F (racemic) [57.052] | greater than 80% | greater than 80%
O=C(NC1COC1c1ccc(F)cc1)c1cccnc1C(F)(F)F (racemic) [57.054] | greater than 80% | greater than 80%
O=C(NC1COC1c1ccc(F)cc1F)c1ccccc1C(F)(F)F (racemic) [57.055] | greater than 80% | greater than 80%
O=C(NC1COC1c1ccc(F)cc1F)c1cccnc1C(F)(F)F (racemic) [57.056] | greater than 80% | greater than 80%
O=C(NC1COC1c1c(F)cc(F)cc1F)c1cccnc1C(F)(F)F (racemic) [57.057] | greater than 80% | greater than 80%
O=C(N[C@@H]1CC[C@@H]1c1ccc(Cl)cc1)c1ccccc1C(F)(F)F (relative stereo) [57.006, cis N-[2-(4-chlorophenyl)cyclobutyl]-2-(trifluoromethyl)benzamide] | greater than 80% | greater than 80%
O=C(NC1CCC1c1ccc(OC(F)(F)F)cc1)c1c(F)cccc1F (stereo not drawn) [57.001] |  | greater than 80%
Cc1ccccc1C(=O)NC1CCC1c1ccc(OC(F)(F)F)cc1 (stereo not drawn) [57.002] |  | greater than 80%
O=C(NC1CCC1c1ccc(OC(F)(F)F)cc1)c1ccccc1C(F)(F)F (stereo not drawn) [57.003] |  | greater than 80%
O=C(NC1COC1c1ccc(Cl)cc1)c1ccccc1C(F)(F)F (stereo not drawn) [57.004] |  | greater than 80%
O=C(NC1CCC1c1ccc(Cl)cc1)c1c(F)cccc1F (stereo not drawn) [57.005] |  | greater than 80%
O=C(NC1CCC1c1ccc(Cl)cc1)c1cccnc1C(F)(F)F (stereo not drawn) [57.007] |  | greater than 80%
O=C(NC1CCC1c1ccc(Cl)cc1Cl)c1c(F)cccc1F (stereo not drawn) [57.008] |  | greater than 80%
O=C(N[C@@H]1CCC1c1ccc(Cl)cc1Cl)c1ccccc1C(F)(F)F (stereo partly drawn) [57.009] | greater than 80% | 

Structure (SMILES) | reduction of galling compared to the untreated control [1] | reduction of galling compared to the untreated control [2]
O=C(N[C@@H]1CO[C@@H]1c1ccc(F)cc1)c1ccccc1C(F)(F)F [57.010, N-[cis-2-(4-chlorophenyl)oxetan-3-yl]-2-(trifluoromethyl)benzamide] | greater than 80% | greater than 80%
O=C(NC1CCC1c1ccc(Cl)cc1Cl)c1cccnc1C(F)(F)F (stereo not drawn) [57.011] | greater than 80% | greater than 80%
O=C(NC1CCC1c1ccc(Cl)cc1Cl)c1ncccn1 (stereo not drawn) [57.012] | greater than 80% | 
O=C(NC1CCC1c1ccc(Cl)cc1F)c1c(F)cccc1F (stereo not drawn) [57.014] | greater than 80% | greater than 80%
O=C(NC1CCC1c1ccc(Cl)cc1F)c1ccccc1C(F)(F)F (stereo not drawn) [57.015] | greater than 80% | greater than 80%
O=C(NC1CCC1c1ccc(OC(F)F)cc1)c1c(F)cccc1F (stereo not drawn) [57.016] | greater than 80% | greater than 80%
O=C(NC1CCC1c1ccc(OC(F)F)cc1)c1ccccc1C(F)(F)F (stereo not drawn) [57.017] | greater than 80% | greater than 80%
O=C(NC1CCC1c1ccc(Cl)cc1)c1cccnc1Cl (stereo not drawn) [57.018] | greater than 80% | greater than 80%
O=C(NC1CCC1c1ccc(Cl)cc1)c1ncccc1C(F)(F)F (stereo not drawn) [57.020] | greater than 80% | greater than 80%
O=C(NC1CCC1c1ccc(Cl)cc1)c1ncccc1F (stereo not drawn) [57.021] | greater than 80% | greater than 80%
O=C(NC1CCC1c1ccc(Cl)cc1)c1nccnc1Cl (stereo not drawn) [57.022] | greater than 80% | greater than 80%
O=C(NC1CCC1c1ccc(Cl)cc1)c1nccnc1C(F)(F)F (stereo not drawn) [57.023] | greater than 80% | greater than 80%
O=C(NC1CCC1c1ccc(Cl)cc1Cl)c1ncccc1C(F)(F)F (stereo not drawn) [57.025] | greater than 80% | greater than 80%
O=C(NC1CCC1c1ccc(Cl)cc1Cl)c1cccnc1F (stereo not drawn) [57.026] |  | greater than 80%
O=C(NC1CCC1c1ccc(Cl)cc1Cl)c1ncccc1F (stereo not drawn) [57.028] | greater than 80% | greater than 80%
O=C(NC1CCC1c1ccc(Cl)cc1Cl)c1nccnc1Cl (stereo not drawn) [57.029] | greater than 80% | greater than 80%
O=C(NC1CCC1c1ccc(Cl)cc1Cl)c1nccnc1C(F)(F)F (stereo not drawn) [57.030] | greater than 80% | 
O=C(NC1CCC1c1ccc(Cl)cc1Cl)c1ncccc1Cl (stereo not drawn) [57.031] | greater than 80% | greater than 80%
O=C(NC1CCC1c1ccc(F)cc1)c1c(F)cccc1F (stereo not drawn) [57.032] |  | greater than 80%
O=C(NC1CCC1c1ccc(F)cc1)c1ccccc1C(F)(F)F (stereo not drawn) [57.033] | greater than 80% | greater than 80%
O=C(NC1CCC1c1ccc(Br)cc1)c1c(F)cccc1F (stereo not drawn) [57.034] |  | greater than 80%
O=C(NC1CCC1c1ccc(F)cc1)c1ncccc1C(F)(F)F (stereo not drawn) [57.040] |  | greater than 80%
